Drawing on paper PMC7434441, this text covers binding for 1 molecule.

In assay [1] the target is T1, BCL9 (full-length, endogenous in control mouse colorectal tumors) (mouse (endogenous in mouse colorectal tumors)) (UniProt Q9D219).
T1 sequence: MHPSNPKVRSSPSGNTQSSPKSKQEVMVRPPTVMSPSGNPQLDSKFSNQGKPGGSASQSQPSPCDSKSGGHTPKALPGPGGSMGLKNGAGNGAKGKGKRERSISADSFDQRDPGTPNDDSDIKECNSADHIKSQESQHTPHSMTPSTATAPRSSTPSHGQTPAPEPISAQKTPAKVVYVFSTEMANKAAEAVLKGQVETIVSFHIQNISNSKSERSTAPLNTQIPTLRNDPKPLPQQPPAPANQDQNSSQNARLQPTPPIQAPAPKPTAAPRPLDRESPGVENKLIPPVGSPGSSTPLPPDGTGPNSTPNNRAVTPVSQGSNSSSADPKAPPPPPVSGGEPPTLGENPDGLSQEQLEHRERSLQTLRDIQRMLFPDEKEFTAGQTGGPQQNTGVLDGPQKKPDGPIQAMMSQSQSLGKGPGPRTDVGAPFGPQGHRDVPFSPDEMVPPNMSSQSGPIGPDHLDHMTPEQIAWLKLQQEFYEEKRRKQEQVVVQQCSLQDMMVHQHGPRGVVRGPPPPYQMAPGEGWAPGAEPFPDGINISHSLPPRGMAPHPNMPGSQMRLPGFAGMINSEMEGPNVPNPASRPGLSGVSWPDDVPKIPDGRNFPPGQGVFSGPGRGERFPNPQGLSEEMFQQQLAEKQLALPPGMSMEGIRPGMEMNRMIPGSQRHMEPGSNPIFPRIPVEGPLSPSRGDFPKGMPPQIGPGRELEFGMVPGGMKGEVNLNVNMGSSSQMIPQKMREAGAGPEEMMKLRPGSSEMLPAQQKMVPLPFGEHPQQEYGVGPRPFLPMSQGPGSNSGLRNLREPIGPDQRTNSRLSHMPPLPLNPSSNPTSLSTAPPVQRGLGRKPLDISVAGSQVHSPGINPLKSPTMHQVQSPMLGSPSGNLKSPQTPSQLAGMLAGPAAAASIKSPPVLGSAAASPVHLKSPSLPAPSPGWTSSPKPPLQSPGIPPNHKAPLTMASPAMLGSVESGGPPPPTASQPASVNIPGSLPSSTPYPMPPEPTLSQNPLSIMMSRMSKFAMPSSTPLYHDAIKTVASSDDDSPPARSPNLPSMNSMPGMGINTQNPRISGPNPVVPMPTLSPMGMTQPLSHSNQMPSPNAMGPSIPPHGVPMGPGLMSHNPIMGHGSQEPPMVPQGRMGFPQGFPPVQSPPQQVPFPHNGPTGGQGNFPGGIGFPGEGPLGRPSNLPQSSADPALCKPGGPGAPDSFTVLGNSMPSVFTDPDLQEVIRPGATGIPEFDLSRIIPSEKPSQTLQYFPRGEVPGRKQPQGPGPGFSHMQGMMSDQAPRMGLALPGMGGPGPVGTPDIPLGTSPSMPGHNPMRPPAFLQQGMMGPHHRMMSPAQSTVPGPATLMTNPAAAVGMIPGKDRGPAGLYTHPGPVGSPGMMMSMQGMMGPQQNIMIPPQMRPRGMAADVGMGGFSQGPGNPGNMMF
Kind of assay: affinity purification with mass spectrometry; anti-BCL9 antibody and protein A Sepharose on protein extracts of control or Bcl9/9l-ΔHD1 mouse tumors; hypotonic lysis buffer (20 mM tris-HCl, 75 mM NaCl, 1.5 mM MgCl2, 1 mM EGTA, 0.5% NP-40, 5% glycerol), 4 hr at 4°C, three washes in lysis buffer; LC-MS/MS.

Assay [2] concerns the target BCL9-ΔHD1 (HD1-deleted variant of BCL9, endogenous in Bcl9/9l-ΔHD1 mouse tumors) (mouse (endogenous in mouse colorectal tumors)) (UniProt Q9D219). Described as above.

No constants are given. Whether binding was seen depends on the method and setting. Binding seen in cells or lysates may run through a third protein. A yes stands for co-enrichment or nearness to the bait. Other partners may have been found. For some assays here: A no says only that the protein was not detected with the bait.

B1: TBX3 (endogenous in mouse colorectal tumors) (protein, UniProt P70324 1-741)
chain: MSLSMRDPVIPGTSMAYHPFLPHRAPDFAMSAVLGHQPPFFPALTLPPNGAAALSLPGALAKPIMDQLVGAAETGIPFSSLGPQAHLRPLKTMEPEEDVEDDPKVHLEAKELWDQFHKRGTEMVITKSGRRMFPPFKVRCSGLDKKAKYILLMDIIAADDCRYKFHNSRWMVAGKADPEMPKRMYIHPDSPATGEQWMSKVVTFHKLKLTNNISDKHGFTLAFPSDHATWQGNYSFGTQTILNSMHKYQPRFHIVRANDILKLPYSTFRTYLFPETEFIAVTAYQNDKITQLKIDNNPFAKGFRDTGNGRREKRKQLTLQSMRVFEERHKKETSDESSSEQAAFNCFAQASSPAVSIVGTSNLKDLCPSEAESDAEAESKEEHGPEACDAAKISTTTAEEPGRDKGSPATRAQLFPAEPSRARDTARLDKASPDSRHSPATISSSTRVPGADERRSPGREGPVATKVDEARAIPAKDAFAPLSVQTDATAHLAQGPLPGLGFAPGLAGQQFFNGHPLFLHPGQFAMGGAFSSMAAGMGPLLATVSGASTGVSGLESTAMASAAAAQGLSGASAATLPFHLQQHVLASQGLAMSPFGSLFPYPYTYMAAAAAASTAAASSSVHRHPFLNLNSMRPRLRYSPYSIPVPVPDSSSLLATALPSMASAAGPLDGKAAALAASPASVAVDSGSELNSRSSTLSSGSVSLSPKLCSEKEAATSELQSIQRLVSGLEAKPDRSCSGSP
As for B1, the binding result in assay [1] is recorded as “binds”; in assay [2], “no binding”.
